Assay results: article PMC8320897, “Inhibition of PI3K and MAPK pathways along with KIT inhibitors as a strategy to overcome drug resistance in gastrointestinal stromal tumors” (PLoS ONE, 2021)

Key:
Format in all cases: cell-based
GIST-T1/10R = assay: Cell proliferation assay (Cell Counting Kit-8); conditions: Homo sapiens, GISTT1; cell viability after 72 hours of treatment
GIST882 = assay: Cell proliferation assay (Cell Counting Kit-8), drug screen; conditions: Homo sapiens, cell viability after 72 hours of treatment
GIST-T1/670 = assay: Cell proliferation assay (Cell Counting Kit-8); conditions: Homo sapiens, GISTT1; cell viability after 72 hours of treatment
GIST-T1 = assay: Cell proliferation assay (Cell Counting Kit-8), drug screen; conditions: Homo sapiens, GISTT1; cell viability after 72 hours of treatment

CNC(=O)c1ccccc1Sc1ccc2c(/C=C/c3ccccn3)n[nH]c2c1 [Axitinib]
IC50 (GIST-T1/10R): 500 nM
IC50 (GIST882): < 10 nM
IC50 (GIST-T1/670): 500 nM
IC50 (GIST-T1): < 1 nM
